Assay results as given in PubChem BioAssay AID1347428 (National Center for Advancing Translational Sciences (NCATS), 2020).
Hit rate of the full screen: of about 91,000 compounds, about 290 (0.32%) were called active. Only results without a clear call are listed here; the source files them as inconclusive. Calls come from the whole dose curve; as a rule, active = well fitted inhibition curve with a large enough effect; inconclusive = small, poorly fitted or top-dose-only effect; inactive = no such curve, though single readings can be large or run the other way.
Note: nearly all actives have a fitted effect of over 25% in size.
Potency is the fitted concentration of half-maximal effect.

Protein sequences, listed by entry. Tags and fused reporters are not part of them.
UniProt Q9GZX7, whole entry: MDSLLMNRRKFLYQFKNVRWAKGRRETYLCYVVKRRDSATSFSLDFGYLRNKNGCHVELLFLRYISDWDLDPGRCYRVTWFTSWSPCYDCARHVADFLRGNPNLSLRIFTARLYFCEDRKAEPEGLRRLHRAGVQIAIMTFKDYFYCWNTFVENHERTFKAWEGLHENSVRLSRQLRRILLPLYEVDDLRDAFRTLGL

These compounds were tested against Single-stranded DNA cytosine deaminase (Homo sapiens) (UniProt Q9GZX7) (assay: Primary qHTS assay for inhibitors of Activation Induced Cytidine Deaminase (AID): AID signal). Conditions: AID deamination FRET fluorescence, UDG-coupled, 4 h.
Source text: Assay Provider (PI) Patricia Gearhart Ph.D.
National Institute on Aging
National Institute of Health (NIH), Bethesda, MD
Assay Provider (PI) Rahul Kohli Ph.D.
Perelman School of Medicine
University of Pennsylvania, Philadelphia, PA
Activation-Induced Deaminase (AID) is a cytosine deaminase which converts cytosine into uracil within stretches of ssDNA. The presence of uracil in DNA initiates a cascade of mutagenic DNA repair to introduce point mutations and DNA double strand breaks. Specific targeting of AID to the immunoglobulin heavy chain loci (Igh) promotes mutagenesis in the antibody variable region for somatic hypermutation (SHM) or switch regions leading to class switch recombination (CSR). However, AID also plays a role in accumulating unnecessary mutations across the genome. Mis-targeting of AID results in the initiation of tumor development and leads to greater drug resistance among cancer cells when continually expressed. To identify an AID inhibitor, a small molecule library will be screened in collaboration with NCATS core facility at NIH. To confirm biological function, inhibitors will be examined in an in vitro murine B-cell activation assay and subsequent secondary validation screens. Top molecules will be further screened to identify inhibitory efficacy against a wild type primary splenocytes assay. Using these approaches, we hope to identify a small molecule with great efficacy and low toxicity for use as a molecular probe to further characterize AID's intricacies, or even as a therapeutic.
A FRET based analysis of cytosine deamination, was developed to identify potential inhibitors of AID catalytic activity. This screen has two signal output, Read 1 evaluates the AID inhibition response. The second readout (Read 2) evaluates UDG response and is uses as a counterscreen to exclude false positive inhibitors. Inhibition in AID and inactivity in the UDG signal is the desired outcome for this assay.
SEQUENCE No. (e.g., 1, 2, 3, etc.); […] (e.g., Cells, Incubation, Reagent, etc.); VALUE; DESCRIPTION
1a; Reagent; 3 uL; [4/3x] 1 uM AID/2.67 U/mL UDG
1b; Reagent; 3 uL; 2 U/mL UDG
1c; Reagent; 3 uL; 1 uM AID
2a; Compound; 46 nL; Follow-up plates (0.64 uM - 10 mM)
2b; Control; 46 nL; ATA ([…] - 10 mM)
3; Time; 10 min; incubation at room temperature
5; Time; 4 hr; incubation at room temperature
6; Reagent; 4 uL; [2x] 250 mM NaOH
7; Time; 15 sec; centrifuge at 1000 rpm
8; Time; 30 min; incubation at room temperature
9a; Detection; fluorescence (Read 1: AID); EnVision (PerkinElmer) plate reader, 540 excitation and 590 emission filters
9b; Detection; fluorescence (Read 2: UDG); EnVision (PerkinElmer) plate reader, 560 excitation and 665 emission filters
NOTES (numbers refer to sequence above) […]
9a; Fluorescence signal (column label AID) was read using the EnVision plate reader. […]
With Cc1ccc(C(C)CCN(CCCl)CCCl)cc1 (centres undefined) the Potency was inconclusive: 50.1 µM.
Brc1ccc(NC2CCN(Cc3cccc(Br)c3)CC2)cc1 was tested, and the Potency was inconclusive: 31.6 µM.
For Fc1ccc(CN2CCC(Nc3ccc(Br)cc3)CC2)cc1, the Potency was inconclusive: 56.2 µM.
Clc1ccccc1CN1CCC(Nc2ccc(Br)cc2)CC1 was tested, and the Potency was inconclusive: 44.7 µM.
